Reference: US20150185241A1, “Tilidine Immunodetection” (Randox Laboratories Limited, priority 2013, published 2015)
Counter-ions that a name gives are not always drawn.

Experiments:
[1] = tested on: tilidine-specific antibody raised from Immunogen-II; test: Competitive ELISA (Example 8): different Ig fraction of antiserum raised to Immunogen II, hapten-HRP conjugate of Example 6 as detecting agent; type: binding; settings: absorbance at 450 nm
Protocol: The wells of an enhanced binding 96 well polystyrene microtitre plate were coated with a different Ig fraction (to that exemplified in Example 7) of the antiserum raised to Immunogen II (N-(carboxypropyl)nortilidine-BTG—example 5), diluted in 10 mMTris, pH 8.5 (125 μl/well). The appropriate antibody coating dilution was determined using standard ELISA checkerboard techniques. The plate was incubated for 2 hours at 37° C., washed 4 times over 10 minutes with Tris buffered saline, containing Tween 20 (TBST) and tapped dry. Standard solutions of tilidine hydrochloride (a mixture of the two trans isomers—the 1R, 2S and the 1S, 2R trans isomers) and bisnortilidine hydrochloride (a mixture of the two trans isomers—the 1R, 2S and the 1S, 2R trans isomers) were prepared in TBST at 0, 0.313 ng/ml, 0.625 ng/ml, 1.25 ng/ml, 2.5 ng/ml, 5 ng/ml, 10 ng/ml and 20 ng/ml and 50 μl of each was added to the appropriate wells. 75 μl of conjugate of example 6 (hapten-HRP), diluted in Tris buffer (pH7.2) containing EDTA, D-mannitol, sucrose, thimerosal and BSA was added to each of the wells. The appropriate dilution of conjugate was also determined using standard ELISA checkerboard techniques. The plate was incubated at 25° C. for 1 hour. Excess unbound conjugate was removed by washing 6 times over a 10-15 minute period with TBST. 125 μl of tetramethylbenzidine (TMB) substrate solution was added to each well of the plate that was then incubated for 20 minutes in the dark at room temperature. The reaction was terminated by the addition of 125 μl of 0.2M H2SO4 to each well. The absorbance was then measured at 450 nm using a microtitre plate reader.

[2] = tested on: tilidine-specific antibody raised from Immunogen-II; test: Competitive ELISA (Example 7): Ig fraction of antiserum raised to Immunogen II, hapten-HRP conjugate of Example 6 as detecting agent; type: binding; settings: absorbance at 450 nm
Protocol: The wells of an enhanced binding 96 well polystyrene microtitre plate were coated with the Ig fraction of the antiserum raised to Immunogen II (N-(carboxypropyl)nortilidine-BTG—example 5), diluted in 10 mMTris, pH 8.5 (125 μl/well). The appropriate antibody coating dilution was determined using standard ELISA checkerboard techniques. The plate was incubated for 2 hours at 37° C., washed 4 times over 10 minutes with Tris buffered saline, containing Tween 20 (TBST) and tapped dry. Standard solutions of tilidine hydrochloride (a mixture of the two trans isomers—the 1R, 2S and the 1S, 2R trans isomers) and nortilidine hydrochloride (a mixture of the two trans isomers—the 1R, 2S and the 1S, 2R trans isomers) were prepared in TBST at 0, 0.625 ng/ml, 1.25 ng/ml, 2.5 ng/ml, 5 ng/ml, 10 ng/ml, 20 ng/ml and 40 ng/ml and 50 μl of each was added to the appropriate wells. 75 μl of conjugate of example 6 (hapten-HRP), diluted in Tris buffer (pH7.2) containing EDTA, D-mannitol, sucrose, thimerosal and BSA was added to each of the wells. The appropriate dilution of conjugate was also determined using standard ELISA checkerboard techniques. The plate was incubated at 25° C. for 1 hour. Excess unbound conjugate was removed by washing 6 times over a 10-15 minute period with TBST. 125 μl of tetramethylbenzidine (TMB) substrate solution was added to each well of the plate that was then incubated for 20 minutes in the dark at room temperature. The reaction was terminated by the addition of 125 μl of 0.2M H2SO4 to each well. The absorbance was then measured at 450 nm using a microtitre plate reader.

Compound: CCOC(=O)[C@]1(c2ccccc2)CCC=C[C@H]1N(C)C (racemic) [Tilidine HCl, (±)-trans-ethyl 2-(N,N-dimethylamino)-1-phenylcyclohex-3-enylcarboxylate]
- A450 ([1]; standard 0.313 ng/ml): 0.971
- A450 ([1]; standard 0.625 ng/ml): 0.873
- A450 ([1]; standard 1.250 ng/ml): 0.724
- A450 ([1]; standard 2.500 ng/ml): 0.568
- A450 ([1]; standard 5.000 ng/ml): 0.422
- A450 ([1]; standard 10.000 ng/ml): 0.297
- A450 ([1]; standard 20.000 ng/ml): 0.194
- A450 ([2]; standard 0.625 ng/ml): 0.989
- A450 ([2]; standard 1.250 ng/ml): 0.861
- A450 ([2]; standard 2.500 ng/ml): 0.714
- A450 ([2]; standard 5.000 ng/ml): 0.572
- A450 ([2]; standard 10.000 ng/ml): 0.444
- A450 ([2]; standard 20.000 ng/ml): 0.319
- A450 ([2]; standard 40.000 ng/ml): 0.212
